Test results published in patent US11842798B2, “Natural product and genetic data analysis and discovery system, method and computational platform therefor” (priority 2015, dated 2023).

Tested on: Bacillus subtilis 168
Test: Fluorescence microscopy, probe localization
Assay type: cell-based
Conditions: live B. subtilis

## N-carboxyfluorescein telomycin [fluorescein-labelled telomycin conjugate]
  localization in bacterial cells: localizes to poles and septa
Listed as fluorescent conjugate of telomycin
  localization in bacterial cells: accumulated at poles and septa
